This note sets out measurements from US20210024903A1.

Sequences of proteins named here, by UniProt entry; tags and fusion partners are left off. Residues count along the entry.
UniProt P18177, residues 2-2366: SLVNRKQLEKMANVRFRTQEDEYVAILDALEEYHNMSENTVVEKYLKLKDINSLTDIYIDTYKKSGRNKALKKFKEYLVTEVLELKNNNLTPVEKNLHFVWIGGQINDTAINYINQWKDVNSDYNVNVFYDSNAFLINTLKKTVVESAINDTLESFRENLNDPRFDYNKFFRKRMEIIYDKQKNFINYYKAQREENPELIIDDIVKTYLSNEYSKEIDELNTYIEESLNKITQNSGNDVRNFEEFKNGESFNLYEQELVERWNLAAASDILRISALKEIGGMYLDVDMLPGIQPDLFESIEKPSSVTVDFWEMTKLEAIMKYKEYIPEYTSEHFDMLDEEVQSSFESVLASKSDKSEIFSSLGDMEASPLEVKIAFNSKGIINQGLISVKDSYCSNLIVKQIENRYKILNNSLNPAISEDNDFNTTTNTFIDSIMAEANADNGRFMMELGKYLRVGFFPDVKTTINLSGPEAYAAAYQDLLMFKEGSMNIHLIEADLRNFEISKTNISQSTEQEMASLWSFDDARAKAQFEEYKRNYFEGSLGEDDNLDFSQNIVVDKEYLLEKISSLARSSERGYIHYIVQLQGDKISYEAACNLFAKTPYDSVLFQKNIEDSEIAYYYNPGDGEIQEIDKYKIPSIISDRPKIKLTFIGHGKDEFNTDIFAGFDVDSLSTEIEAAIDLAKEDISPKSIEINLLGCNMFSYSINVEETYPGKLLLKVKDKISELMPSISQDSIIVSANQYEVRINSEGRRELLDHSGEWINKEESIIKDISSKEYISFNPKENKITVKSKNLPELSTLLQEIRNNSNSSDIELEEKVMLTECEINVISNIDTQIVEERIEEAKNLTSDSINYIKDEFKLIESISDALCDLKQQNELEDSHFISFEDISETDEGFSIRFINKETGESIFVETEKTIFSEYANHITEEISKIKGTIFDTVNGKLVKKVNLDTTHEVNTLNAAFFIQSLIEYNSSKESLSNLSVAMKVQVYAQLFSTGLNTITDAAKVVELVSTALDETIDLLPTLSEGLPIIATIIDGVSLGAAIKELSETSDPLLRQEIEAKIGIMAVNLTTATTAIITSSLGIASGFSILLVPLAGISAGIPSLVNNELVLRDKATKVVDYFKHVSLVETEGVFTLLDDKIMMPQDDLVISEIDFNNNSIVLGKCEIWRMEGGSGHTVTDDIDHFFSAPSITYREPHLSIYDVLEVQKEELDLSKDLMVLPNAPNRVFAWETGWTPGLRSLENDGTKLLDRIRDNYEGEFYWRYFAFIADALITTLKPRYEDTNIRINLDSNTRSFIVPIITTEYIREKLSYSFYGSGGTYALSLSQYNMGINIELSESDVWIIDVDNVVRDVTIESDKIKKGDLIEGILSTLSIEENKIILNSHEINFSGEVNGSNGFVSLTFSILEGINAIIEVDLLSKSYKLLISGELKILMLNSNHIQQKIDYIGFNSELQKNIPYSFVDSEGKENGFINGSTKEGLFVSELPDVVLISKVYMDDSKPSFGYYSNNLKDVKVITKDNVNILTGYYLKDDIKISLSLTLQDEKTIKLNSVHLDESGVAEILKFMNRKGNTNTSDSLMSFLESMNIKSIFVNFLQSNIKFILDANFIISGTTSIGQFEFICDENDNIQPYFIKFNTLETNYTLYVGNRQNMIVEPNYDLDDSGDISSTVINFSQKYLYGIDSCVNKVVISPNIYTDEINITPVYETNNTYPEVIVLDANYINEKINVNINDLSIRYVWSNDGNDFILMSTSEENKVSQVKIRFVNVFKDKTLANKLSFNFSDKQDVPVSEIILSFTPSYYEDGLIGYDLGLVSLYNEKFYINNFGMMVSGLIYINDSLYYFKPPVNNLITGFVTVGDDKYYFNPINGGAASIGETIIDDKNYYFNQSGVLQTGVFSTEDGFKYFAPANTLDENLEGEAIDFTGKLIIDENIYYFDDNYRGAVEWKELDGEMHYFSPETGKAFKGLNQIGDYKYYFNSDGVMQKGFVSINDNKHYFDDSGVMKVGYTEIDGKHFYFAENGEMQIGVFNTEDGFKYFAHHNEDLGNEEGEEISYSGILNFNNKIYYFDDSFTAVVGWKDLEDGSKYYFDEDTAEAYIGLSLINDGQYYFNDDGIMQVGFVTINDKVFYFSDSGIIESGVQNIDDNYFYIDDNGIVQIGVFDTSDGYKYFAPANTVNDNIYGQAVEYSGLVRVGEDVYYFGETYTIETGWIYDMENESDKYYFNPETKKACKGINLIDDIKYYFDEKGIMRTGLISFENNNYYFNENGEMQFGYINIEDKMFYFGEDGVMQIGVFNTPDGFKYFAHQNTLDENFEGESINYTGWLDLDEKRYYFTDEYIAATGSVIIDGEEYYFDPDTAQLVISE

These are yes or no findings as the source states them, for the method shown. Some entries that bind do so weakly or less than the wild type.

For test [1], the target named is Toxoid B, List (formalin-inactivated wild type toxin B) (C. difficile) (UniProt P18177). The experiment in a line: dot blot.
Test [2] has the same target. The experiment in a line: dot blot, nondenaturing.
For test [3], the target named is Commercial, FI Toxoid B (List Biologicals) (Clostridium difficile) (UniProt P18177). The test can be described thus: dot blot, non-denaturing.

B1: B8-26 mAb (antibody, V domains shown)
VH: QVQLQQPGAELVKPGAPVKLSCKASGYSFTSYWMNWVKQRPGRGLEWIGRIDPSNSEIYYNQKFKDKATLTVDKSSSTAYIQLSSLTSEDSAVYYCASGHYGSIFAYWGQGTTLTVSS
VL: VQITQSPSYLAASPGETITINCRASKSISKYLAWYQEKPGKTNKLLLYSGSTLQSGIPSRFSGSRSGTDFTLIISSLEPEDSAMYYCQQHNEYPLTFGAGTKLELKR
In the case of B1, the binding result in test [1] and in test [2] was “binds” in each case.

B2: B8-26 (antibody, V domains shown)
VH: QVQLQQPGAELVKPGAPVKLSCKASGYSFTSYWMNWVKQRPGRGLEWIGRIDPSNSEIYYNQKFKDKATLTVDKSSSTAYIQLSSLTSEDSAVYYCASGHYGSIFAYWGQGTTLTVSS
VL: VQITQSPSYLAASPGETITINCRASKSISKYLAWYQEKPGKTNKLLLYSGSTLQSGIPSRFSGSRSGTDFTLIISSLEPEDSAMYYCQQHNEYPLTFGAGTKLELKR
Take B2: the binding entry in test [3] is “binds”.

B3: B59-3 mAb (antibody, V domains shown)
VH: QVQLQQPGAELVKPGASVKLSCKASGYTFTSYWMHWVKQRPGQGLEWIGVINPSNGRSTYSEKFKTTATVTVDKSSSTAYMQLSILTSEDSAVYYCARAYYSTSYYAMDYWGQGTSVTVSS
VL: VLMTQSPLSLPVSLGDQASISCRSSQNIVHSNGNTYLEWYLQKPGQSPKLLIYKVSNRFSGVPDRFSGSGSGTYFTLKISRVEAEDLGVYYCFQGSHFPFTFGTGTKLEIKR
Turning to B3, the binding entry in test [1] and in test [2] was “binds” throughout.

B4: B59-3 (antibody, V domains shown)
VH: QVQLQQPGAELVKPGASVKLSCKASGYTFTSYWMHWVKQRPGQGLEWIGVINPSNGRSTYSEKFKTTATVTVDKSSSTAYMQLSILTSEDSAVYYCARAYYSTSYYAMDYWGQGTSVTVSS
VL: VLMTQSPLSLPVSLGDQASISCRSSQNIVHSNGNTYLEWYLQKPGQSPKLLIYKVSNRFSGVPDRFSGSGSGTYFTLKISRVEAEDLGVYYCFQGSHFPFTFGTGTKLEIKR
On to B4, for which the binding result in test [3] was “binds”.
